Laboratory results taken from patent US8557989B2, “Electrochemical affinity biosensor system and methods” (priority 2003, dated 2013).

Test: Recycling CV and bipotentiostatic amperometric dose response on interdigitated array (IDA) electrodes

Row | SMILES | slope of dose response curve (0-5 μM, planar IDA 750 finger pairs, W and Wg 2 μm, WE1=250 mV, WE2=0 mV) | redox recycling on IDA
1 | O=C(CCCCC1SCC2NC(=O)NC21)NCCCCCC(=O)NCCc1c[n+]([Os]23([Cl])([n+]4ccccc4-c4cccc[n+]42)[n+]2ccccc2-c2cccc[n+]23)c[nH]1 (centres unmarked) [compound 57] | about 126 nA/μM | –
2 | CN1CC[C@]23c4c5ccc(OCCCNC(=O)c6ccc(-c7ccc(C(=O)NCCc8c[n+]([Os]9%10([Cl])([n+]%11ccccc%11-c%11cccc[n+]%119)[n+]9ccccc9-c9cccc[n+]9%10)c[nH]8)cc7)cc6)c4O[C@H]2C(O)C=CC3[C@H]1C5 (some centres unmarked) [osmium morphine conjugate] | – | did not recycle properly
